From patent US7727950B2, “Methods and reagents for assaying protein kinase activity” (The University of Dundee, priority 2002, dated 2010)
At least one peptide structure holds a part that was inferred or is arguable (an end, a ring closure or a residue). Ends that are not written are not given here.

Experiments:
Assay in all cases: Kinetic parameters for peptide phosphorylation, radioactive filter-binding assay
MSK1 = biological target: T1, MSK1 (Homo sapiens, UniProt O75582); format: biochemical; details: relative to Standard Substrate LRRASLG
T1 construct: made in house; host or cells: Sf21 insect cells

PKBα = biological target: T2, PKBα (Homo sapiens, UniProt P31749); format: biochemical; details: relative to Standard Substrate GRPRTSSFAEG
T2 construct: made in house; host or cells: Sf21 insect cells
Excerpt: (§1) Apart from the AMP-activated protein kinase (AMPK, a gift from Drs S. Hawley and D. G. Hardie), cGMP-dependent protein kinase (PKG, a generous gift from Drs Susan Lohmann and Ulrich Walter, University of Wurzburg, Germany) and the catalytic subunit of cyclic AMP-dependent protein kinase (PKA, a gift from Dr C. Smythe), which were isolated from rat liver, bovine lung and bovine heart, respectively, all other protein kinases were expressed as either GST-fusion or His-tagged proteins (by a person, a person, Dr A. Paterson or a person, in this Division). The expressed proteins all corresponded to the human sequences apart from the rat Rho-dependent protein kinase (ROCK-II) and rat mitogen-activated protein kinase (MAPK) activated kinase-1a (MAPKAP-K1a, also called RSK). GST-fusion proteins were purified on GSH-agarose (Amersham Pharmacia Biotech, Amersham, UK) and His-tagged proteins on Ni-NTA agarose (Qiagen) essentially according to the manufacturer's instructions. All the protein kinases used in this study are available from Upstate Biotechnology Inc. (Lake Placid, N.Y., USA), apart from the α-isoform of calmodulin-dependent protein kinase II (CaMKII), MAPKAP-K3 and PKG.
(§2) The following enzymes were expressed in Sf21 cells: Checkpoint Kinase 1 (CHK1), p38 regulated/activated kinase (PRAK), protein kinase Bα (PKBα), MAPKAP-K1a and serum and glucocorticoid-induced kinase 1 (SGK1[S422D] and lacking the N-terminal 59 residues), mitogen and stress-activated protein kinase 1 (MSK1), p70 ribosomal S6 kinase 1 (S6K1[T412E], lacking the C-terminal 104 residues), c-Raf, protein kinase C (PKCα, Calbiochem Novachem Corp.), rat ROCKII[1-543].
(§3) MAPKAP-K2 and MAPKAP-K3 were activated with incubation with MgATP and extracellular signal regulated protein kinase-2 (ERK2); ERK2 with MAPK kinase-1 (MKK1); MKK1 with Raf; SAPK2a/p38 with MKK6; PRAK with SAPK2a/p38; PKBA, SGK1 and S6K1 with PDK1.
(§4) All protein kinase assays were linear with respect to time. The assays with standard peptide substrates have been described previously. The assays with the three generic peptides introduced in this example were carried out in the same buffers as follow. Unlabelled or biotinylated substrate peptides were assayed for 10 min at 30° C. in 50 μl incubations, in the presence of 0.1 mM [y^32P]ATP or unlabelled ATP. […] All papers were subsequently washed a further three times in phosphoric acid, once in acetone, then dried and counted for radioactivity. […] The plates were then washed six times (five min per wash) in PBS, 0.1% Tween 20 and binding of the phospho-specific antibody detected by incubating the plates with peroxidase-conjugated anti-sheep antibodies (Pierce). […] Signals were quantitated on LAS-1000IR software (FujiFilm). […]

SGK1 = biological target: T3, SGK1 (Homo sapiens, UniProt O00141, S422D); format: biochemical; details: relative to Standard Substrate GRPRTSSFAEG
T3 construct: made in house; host or cells: Sf21 insect cells
T3 sequence (O00141 60-431 S422D): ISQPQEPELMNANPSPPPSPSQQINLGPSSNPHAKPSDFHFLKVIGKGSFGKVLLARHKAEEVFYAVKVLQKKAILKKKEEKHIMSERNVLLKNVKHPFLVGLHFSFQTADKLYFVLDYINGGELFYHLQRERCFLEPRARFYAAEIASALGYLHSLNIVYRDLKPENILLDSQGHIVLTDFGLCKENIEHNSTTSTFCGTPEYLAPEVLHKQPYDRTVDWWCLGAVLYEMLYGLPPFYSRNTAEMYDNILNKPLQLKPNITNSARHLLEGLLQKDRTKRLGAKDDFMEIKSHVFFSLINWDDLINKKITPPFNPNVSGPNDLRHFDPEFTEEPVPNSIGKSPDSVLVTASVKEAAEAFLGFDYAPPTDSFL
Excerpt: as §1, §2, §3, §4

S6K1 = biological target: T4, S6K1 (Homo sapiens, UniProt P23443, T412E); format: biochemical; details: relative to Standard Substrate LRRASLG
T4 construct: made in house; host or cells: Sf21 insect cells
Excerpt: as §1, §2, §3, §4

PKG = biological target: T5, PKG (Bos taurus, UniProt P00516); format: biochemical, bovine; details: relative to Standard Substrate KEAKEKRQEQIAKRRRLSSLRASTSKSGGSQK
T5 construct: which were isolated from rat liver, bovine lung and bovine heart, respectively; from tissue; host or cells: bovine lung
T5 sequence (P00516 1-671): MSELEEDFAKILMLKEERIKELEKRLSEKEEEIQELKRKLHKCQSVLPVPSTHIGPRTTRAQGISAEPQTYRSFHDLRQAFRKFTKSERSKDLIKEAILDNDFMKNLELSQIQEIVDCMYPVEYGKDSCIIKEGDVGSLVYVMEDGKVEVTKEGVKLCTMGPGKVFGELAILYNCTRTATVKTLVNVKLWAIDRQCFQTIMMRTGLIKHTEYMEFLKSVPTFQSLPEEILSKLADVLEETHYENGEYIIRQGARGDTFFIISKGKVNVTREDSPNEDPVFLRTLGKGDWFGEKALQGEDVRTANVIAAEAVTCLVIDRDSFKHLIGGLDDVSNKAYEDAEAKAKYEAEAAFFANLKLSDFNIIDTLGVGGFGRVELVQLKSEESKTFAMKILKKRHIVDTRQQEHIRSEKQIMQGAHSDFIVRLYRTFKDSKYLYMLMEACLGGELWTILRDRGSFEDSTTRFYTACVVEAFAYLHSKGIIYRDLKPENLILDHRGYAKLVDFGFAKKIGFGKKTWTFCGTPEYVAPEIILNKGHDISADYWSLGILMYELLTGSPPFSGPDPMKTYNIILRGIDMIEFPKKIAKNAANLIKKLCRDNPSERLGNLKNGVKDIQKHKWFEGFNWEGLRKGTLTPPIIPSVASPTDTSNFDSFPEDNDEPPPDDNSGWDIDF
Excerpt: as §1, with “GST-fusion proteins were purified on GSH-agarose (Amersham Pharmacia Biotech, Amersham, UK) and His-tagged proteins on Ni-NTA agarose (Qiagen) essentially according to the manufacturer's instructions. All the protein kinases used in this study are available from Upstate Biotechnology Inc. (Lake Placid, N.Y., USA), apart from the α-isoform of calmodulin-dependent protein kinase II (CaMKII), MAPKAP-K3 and PKG.” left out
All protein kinase assays were linear with respect to time. […] All papers were subsequently washed a further three times in phosphoric acid, once in acetone, then dried and counted for radioactivity. […] The plates were then washed six times (five min per wash) in PBS, 0.1% Tween 20 and binding of the phospho-specific antibody detected by incubating the plates with peroxidase-conjugated anti-sheep antibodies (Pierce). […] Signals were quantitated on LAS-1000IR software (FujiFilm). […]

ROCKII = biological target: T6, ROCKII (Rattus norvegicus, UniProt Q62868); format: biochemical; details: relative to Standard Substrate KEAKEKRQEQIAKRRRLSSLRASTSKSGGSQK
T6 construct: rat ROCKII[1-543]; made in house; host or cells: Sf21 insect cells
Excerpt: as §1, §2
(§5) All protein kinase assays were linear with respect to time. The assays with standard peptide substrates have been described previously. The assays with the three generic peptides introduced in this example were carried out in the same buffers as follow. Unlabelled or biotinylated substrate peptides were assayed for 10 min at 30° C. in 50 μl incubations, in the presence of 0.1 mM [y^32P]ATP or unlabelled ATP. Radioactive assays were terminated by spotting 40 μl of each incubation on to phosphocellulose paper followed by immersion in 75 mM phosphoric acid. All papers were subsequently washed a further three times in phosphoric acid, once in acetone, then dried and counted for radioactivity. […] The plates were then washed six times (five min per wash) in PBS, 0.1% Tween 20 and binding of the phospho-specific antibody detected by incubating the plates with peroxidase-conjugated anti-sheep antibodies (Pierce). […] Signals were quantitated on LAS-1000IR software (FujiFilm). […]

PKCα = biological target: T7, PKCα (Homo sapiens, UniProt P17252); format: biochemical
T7 construct: purchased Calbiochem Novachem Corp; host or cells: Sf21 insect cells
Excerpt: as §1, §2, §5

PKA = PKA (Bos taurus, UniProt P00517); details: relative to Standard Substrate LRRASLG

| Relative Vmax (MSK1) [%] | Relative Vmax (PKBα) [%] | Relative Vmax (SGK1) [%] | Relative Vmax (S6K1) [%] | Relative Vmax (PKG) [%] | Relative Vmax (ROCKII) [%] | Relative Vmax (PKCα; PKCα, relative to Standard Substrate histone H1) [%] | quality as substrate for PKC (PKCα; compared with other substrates used to assay PKC) | Relative Vmax (PKA) [%] | Sequence |
| --- | --- | --- | --- | --- | --- | --- | --- | --- | --- |
| 156 | 100 | 105 | 124 | – | – | – | – | – | KKLNRTLSFAEPG |
| – | – | – | – | 122 | 39 | 39 | inferior to other substrates | 161 | RRRLSFAEPG |
